The target in the assay is filamin A (mouse (endogenous in mouse kidney cortex and mDCT15 cells)) (UniProt Q8BTM8). Put plainly: co-IP; endogenous proteins from mouse kidney cortex tissue lysates or mDCT15 cell lysates (MPER with protease and phosphatase inhibitors); NCC or filamin antibody overnight at 4 °C, protein G beads 4 h, three washes with 1XPBS; Western blot for the partner.

By UniProt entry, the sequences of proteins in these tests, tags left out.
UniProt Q8BTM8: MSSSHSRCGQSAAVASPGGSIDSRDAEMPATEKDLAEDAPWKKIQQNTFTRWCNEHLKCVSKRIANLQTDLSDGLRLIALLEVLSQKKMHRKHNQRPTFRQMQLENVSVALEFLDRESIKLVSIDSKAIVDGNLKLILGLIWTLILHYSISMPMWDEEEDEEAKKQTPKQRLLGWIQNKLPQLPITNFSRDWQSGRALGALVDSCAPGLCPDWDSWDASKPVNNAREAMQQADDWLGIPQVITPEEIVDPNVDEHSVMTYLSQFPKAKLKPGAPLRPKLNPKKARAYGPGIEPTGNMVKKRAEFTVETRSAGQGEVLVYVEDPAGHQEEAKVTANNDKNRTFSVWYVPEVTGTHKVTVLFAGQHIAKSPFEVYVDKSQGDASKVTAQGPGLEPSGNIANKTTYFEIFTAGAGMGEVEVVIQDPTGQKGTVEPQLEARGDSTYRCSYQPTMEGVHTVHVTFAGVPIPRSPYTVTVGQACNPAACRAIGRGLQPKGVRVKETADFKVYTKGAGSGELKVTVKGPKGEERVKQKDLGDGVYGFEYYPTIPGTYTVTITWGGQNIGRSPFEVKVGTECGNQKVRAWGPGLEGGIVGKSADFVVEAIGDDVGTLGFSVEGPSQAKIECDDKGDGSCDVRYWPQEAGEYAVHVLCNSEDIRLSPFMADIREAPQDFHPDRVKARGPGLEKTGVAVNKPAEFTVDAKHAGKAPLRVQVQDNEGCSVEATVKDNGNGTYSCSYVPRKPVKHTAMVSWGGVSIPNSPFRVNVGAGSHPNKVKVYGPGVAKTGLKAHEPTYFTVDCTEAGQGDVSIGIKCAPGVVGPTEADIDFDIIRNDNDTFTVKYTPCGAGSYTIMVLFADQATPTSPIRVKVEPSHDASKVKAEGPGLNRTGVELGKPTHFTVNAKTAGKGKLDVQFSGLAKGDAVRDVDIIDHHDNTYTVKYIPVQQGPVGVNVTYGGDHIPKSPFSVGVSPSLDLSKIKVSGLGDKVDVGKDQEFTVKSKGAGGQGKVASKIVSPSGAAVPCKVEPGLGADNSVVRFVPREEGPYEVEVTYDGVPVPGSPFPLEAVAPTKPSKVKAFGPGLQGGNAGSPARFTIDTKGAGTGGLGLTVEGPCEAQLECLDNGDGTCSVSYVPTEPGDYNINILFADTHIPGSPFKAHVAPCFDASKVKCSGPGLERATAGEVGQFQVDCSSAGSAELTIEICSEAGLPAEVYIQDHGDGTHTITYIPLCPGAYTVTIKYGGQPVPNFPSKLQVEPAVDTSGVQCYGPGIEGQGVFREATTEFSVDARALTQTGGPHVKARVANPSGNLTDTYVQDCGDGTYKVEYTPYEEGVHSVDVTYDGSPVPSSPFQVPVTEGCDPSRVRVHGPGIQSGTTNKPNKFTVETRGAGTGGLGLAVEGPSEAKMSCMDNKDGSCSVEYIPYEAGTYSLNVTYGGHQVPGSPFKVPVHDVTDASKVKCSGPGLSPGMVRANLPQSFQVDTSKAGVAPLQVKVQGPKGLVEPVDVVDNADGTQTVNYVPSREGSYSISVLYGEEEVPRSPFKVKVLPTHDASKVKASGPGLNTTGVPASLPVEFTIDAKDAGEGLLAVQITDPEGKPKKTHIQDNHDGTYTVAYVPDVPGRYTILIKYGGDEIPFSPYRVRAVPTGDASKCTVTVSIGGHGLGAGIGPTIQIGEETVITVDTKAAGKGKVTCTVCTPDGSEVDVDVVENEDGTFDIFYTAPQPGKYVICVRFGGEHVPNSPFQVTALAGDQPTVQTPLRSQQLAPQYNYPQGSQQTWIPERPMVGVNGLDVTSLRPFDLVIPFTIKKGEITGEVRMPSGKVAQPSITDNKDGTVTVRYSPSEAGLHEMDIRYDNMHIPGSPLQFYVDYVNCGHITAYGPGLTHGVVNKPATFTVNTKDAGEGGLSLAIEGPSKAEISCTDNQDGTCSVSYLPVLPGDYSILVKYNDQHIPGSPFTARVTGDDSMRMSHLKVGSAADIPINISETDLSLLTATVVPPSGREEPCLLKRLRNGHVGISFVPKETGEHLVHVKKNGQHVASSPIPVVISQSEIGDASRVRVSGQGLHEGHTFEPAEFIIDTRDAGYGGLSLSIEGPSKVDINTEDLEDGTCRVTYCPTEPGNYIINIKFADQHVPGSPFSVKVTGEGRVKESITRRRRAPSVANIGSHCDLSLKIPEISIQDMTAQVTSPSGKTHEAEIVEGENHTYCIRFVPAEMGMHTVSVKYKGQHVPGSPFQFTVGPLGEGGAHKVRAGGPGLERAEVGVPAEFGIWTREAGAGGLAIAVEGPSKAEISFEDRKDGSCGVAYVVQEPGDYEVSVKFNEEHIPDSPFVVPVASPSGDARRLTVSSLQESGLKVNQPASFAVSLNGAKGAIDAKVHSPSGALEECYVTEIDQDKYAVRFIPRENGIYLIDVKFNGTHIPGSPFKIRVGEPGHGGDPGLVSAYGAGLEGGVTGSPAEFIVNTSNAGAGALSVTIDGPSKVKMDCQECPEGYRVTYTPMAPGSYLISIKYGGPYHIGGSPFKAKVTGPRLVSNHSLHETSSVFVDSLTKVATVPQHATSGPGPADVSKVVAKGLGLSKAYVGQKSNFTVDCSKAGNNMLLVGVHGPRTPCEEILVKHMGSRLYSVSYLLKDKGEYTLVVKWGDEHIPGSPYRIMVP

These are yes or no findings as the source states them, for the method shown. Binding seen in cells or lysates may run through a third protein. Some results given as binding are weak or reduced against the parent protein; the word gives no strength.

B1: thiazide-sensitive sodium chloride cotransporter (NCC) (protein, UniProt P59158 1-1002)
chain: MAELPVTELPGDALCSGRFTISTLMGGDEPPPAACDSSQPSHLTHGSTLYMRTFGYNTIDVVPAYEHYANSALPGEPRKVRPTLADLHSFLKQEGSHLHALAFDGRQGRELTDGLVEDETGTNSEKSPGEPVRFGWVKGVMIRCMLNIWGVILYLRLPWITAQAGIVLTWLIILLSVMVTSITGLSISAISTNGKVKSGGTYFLISRSLGPELGGSIGLIFAFANAVGVAMHTVGFAETVRDLLQEYGTPIVDPINDIRIIGVVTVTVLLAISLAGMEWESKAQVLFFLVIMVSFANYLVGTLIPASEDKASKGFYSYHGDIFVQNLVPDWRGIDGSFFGMFSIFFPSATGILAGANISGDLKDPAVAIPKGTLMAIFWTTISYLAISATIGSCVVRDASGDVNDTMTPGPGPCEGLACGYGWNFTECSQQRSCRYGLINYYQTMSMVSAFAPLITAGIFGATLSSALACLVSAAKVFQCLCEDQLYPLIGFFGKGYGKNREPVRGYLLAYAIAVAFIIIAELNTIAPIISNFFLCSYALINFSCFHASITNSPGWRPSFRYYSKWAALFGAVISVVIMFLLTWWAALIAIGVVLFLLLYVIYKKPEVNWGSSVQAGSYNLALSYSVGLNEVEDHIKNYRPQCLVLTGPPNFRPALVDFVSTFTQNLSLMICGHVLIGPGKQRVPELRLIASGHTKWLNKRKIKAFYSDVIAEDLRSGVQILMQASGLGRMKPNILVVGFKRNWQSAHPATVEDYIGVLHDAFDFNYGVCVMRMREGLNVSEALQTHTTPEALIQEEQASTIFQSEQGKKTIDIYWLFDDGGLTLLIPYLLHRKKRWGKCKIRVFVGGQINRMDEERKAIISLLSKFRLGFHEVHVLPDINQKPQAEHTKRFEDMIAPFRLNDGFKDEATVTEMRRDCPWKISDEEINKNRIKSLRQVRLSEILLDYSRDAALIILTLPIGRKGKCPSSLYMAWLETLSQDLRPPVLLIRGNQENVLTFYCQ
As to B1, the binding result is recorded as “binds”.
